# Assay results published in PubChem BioAssay AID1347076 (National Center for Advancing Translational Sciences (NCATS), 2019).
# Hit rate of the full screen: of about 400,000 compounds, about 13,000 (3.2%) were called active. This list was built around the results that the source calls inconclusive (neither active nor inactive); the mix of calls is not that of the screen. Calls follow the shape of the dose curve; as a rule, active = well fitted cell-killing curve with a large enough effect; inconclusive = small, poorly fitted or top-dose-only effect, or effect the other way; inactive = flat fitted curve, though single readings scatter. Where the call is inconclusive, the potency comes from a doubtful curve fit.
# Test: qHTS assay for MDR1-selective chemotherapeutics: Primary screen using the drug-selected MDR subline cells KB-V1; also: nearly all actives have a fitted effect of over 60% in size
# Conditions: KB-V1 MDR cells viability, CellTiter-Glo, 72 h; activity change, negative = cytotoxicity: at 46.1 µM (top of the series)
# In short: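 Cytotoxicity via CellTiter-Glo luminescence after 72 h compound exposure at 37 degrees C. Cells: drug-selected KB-V1 line, DMEM phenol-red free plus 10% FBS. Compounds tested at multiple concentrations; normalized data fitted to concentration-effect curves.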
# % is scaled to controls: 0 for no effect and ±100 for the full control effect; potency is read from the fitted curve at half-maximal effect.
Structure (SMILES),Potency,"activity change, negative = cytotoxicity"
COC(=O)[C@@]12C[C@@H](CC(=O)NCc3cccs3)C(=O)N(Cc3ccc4c(c3)OCO4)C1=CCC(C)(C)C2,"inconclusive: 11.6 µM [cytotoxic, partial curve]",
CCc1ccc(Nc2ncnc3c2cnn3-c2cc(Cl)ccc2C)cc1,,inconclusive: -48.6%
ClCCn1cnc2c(SCc3ccccc3)ncnc21,active: 6.51 µM,
C=CCNc1nc2c(c(=O)[nH]c(=O)n2C)n1CCOc1ccccc1,"inconclusive: 29.1 µM [cytotoxic, single point]",
Cc1nc2cc(F)ccc2n1C1CCN(S(=O)(=O)c2ccccc2)CC1,"inconclusive: 23.1 µM [cytotoxic, single point]",
O=C(OCc1ccccc1Cl)c1cc([N+](=O)[O-])ccc1N1CCOCC1,"inconclusive: 20.6 µM [cytotoxic, partial curve, poor fit]",
Cc1cc(OCc2ccc(F)cc2)nc(-c2ccccc2O)n1,"inconclusive: 8.2 µM [cytotoxic, partial curve]",
CCOc1ccccc1N=Nc1c(C)[nH]n(C(N)=S)c1=O,"inconclusive: 29.1 µM [cytotoxic, single point]",
CC1NC(=O)N(C)[C@@H]2NC(=O)N(C)C(c3ccc([N+](=O)[O-])cc3)[C@@H]12 (stereo partly drawn),"inconclusive: 0.291 µM [cytotoxic, full curve]",
COc1ccccc1N1CCN(C(CNC(=O)c2ccc3c(c2)OCO3)c2cccnc2)CC1 (stereo not drawn),"inconclusive: 10.3 µM [cytotoxic, partial curve, poor fit]",
Cc1ccc(CNC(=O)c2ccc3c(O)c(S(=O)(=O)c4ccccc4)c(=O)[nH]c3c2)cc1,"inconclusive: 2.31 µM [rising, full curve]",
CC1C/C(=C/c2ccncc2)C(=O)/C(=C/c2ccncc2)C1 (stereo not drawn),inactive,
O=C(NC1CCCCC1)c1c(O)nc2sccn2c1=O,"inconclusive: 16.4 µM [cytotoxic, single point]",
COc1cc(/C=C(/C#N)c2ccc(F)cc2)ccc1Oc1ccc([N+](=O)[O-])cn1,active: 2.31 µM,
CCCCc1ccc(NC(=O)CSC2=NN3CCCC(=O)N=C3S2)cc1,"inconclusive: 6.51 µM [cytotoxic, full curve]",
Cc1cc(N2CCCC2)ccc1/C=C1/C(=O)N(C)C(=S)N1C,"inconclusive: 23.1 µM [cytotoxic, single point]",
COc1ccc(NC(=S)c2ccncc2)cc1,active: 18.4 µM,
COc1ccc(NC(=O)CN2CCN(CC(=O)Nc3ccc(OC)cc3)CC2)cc1,"inconclusive: 25.9 µM [rising, single point]",
CC(=O)c1ccc(NC(=O)CCNS(=O)(=O)c2ccccc2F)cc1,inactive,
CC(C)(C)C1CCC(N2CCN(c3ccccc3)CC2)CC1 (stereo not drawn),inactive,
COCCNC(=O)c1cc(-c2ccccc2OC)on1,"inconclusive: 4.61 µM [cytotoxic, full curve, poor fit]",
Cc1cccc2cc(COC(=O)COc3ccccc3)c(=O)[nH]c12,inactive,
Cc1ccc(C)c(S(=O)(=O)N2CCN(C(=O)CCCc3c[nH]c4ccccc34)CC2)c1,"inconclusive: 11.6 µM [cytotoxic, partial curve]",

Structure (SMILES),Potency,"activity change, negative = cytotoxicity"
CCOc1ccc(NC(=O)C(NS(=O)(=O)c2ccc3c(c2)CCN3C(C)=O)C(C)C)cc1 (stereo not drawn),inactive,
Cc1c(NC(=S)N/N=C\c2ccccc2O)c(=O)n(-c2ccccc2)n1C,"inconclusive: 4.61 µM [cytotoxic, partial curve]",
c1ccc2c(N3CCCCC3)nc(N3CCCC3)nc2c1,active: 16.4 µM,
CC1Cc2ccccc2N1C(=O)CSc1ccccc1 (stereo not drawn),active: 16.4 µM,
O=C(NC(NC(=S)Nc1c(Cl)cccc1Cl)C(Cl)(Cl)Cl)OCc1ccccc1 (stereo not drawn),"inconclusive: 29.1 µM [cytotoxic, single point]",
COc1ccccc1NS(=O)(=O)c1cc(NC(=S)NCC2CCCO2)ccc1C (stereo not drawn),"inconclusive: 20.6 µM [cytotoxic, single point]",
COc1ccc(CNCc2ccc(C)cc2)c(OC)c1,inactive,
O=C(CSc1nc2ccccc2nc1Cc1ccc(Cl)cc1)NCCc1ccccc1,inactive,
COc1ccccc1NS(=O)(=O)c1cc(-c2cnc(C3CC3)o2)ccc1C,"inconclusive: 18.4 µM [cytotoxic, single point]",
CC(c1ccco1)N(C(=O)c1ccccc1NS(=O)(=O)c1cc([N+](=O)[O-])ccc1Cl)c1ccccn1 (stereo not drawn),"inconclusive: 18.4 µM [cytotoxic, single point]",
C[C@H]1CCC(=O)N(CCSc2ccc(Br)cc2)CC1,"inconclusive: 16.4 µM [cytotoxic, single point]",
Cc1ccc(S(=O)(=O)N(Cc2cccc(Cl)c2)C(=O)N2CCN(C)CC2)cc1,"inconclusive: 25.9 µM [rising, single point]",
CCN(CC)S(=O)(=O)c1ccc(N2CCOCC2)c(NC(=O)c2cc(Cl)c3c(c2)OCO3)c1,inactive,
CCOC(=O)C1CCN(C(=O)COC(=O)c2c(C)c(CC)nc3ccccc23)CC1,"inconclusive: 20.6 µM [cytotoxic, single point]",
Cc1cccc(C2Nc3ccccc3C(=O)N2c2ccccc2)n1 (stereo not drawn),"inconclusive: 1.64 µM [cytotoxic, full curve]",
CCN1CCN(C(CNS(=O)(=O)c2ccc(F)cc2)c2cccnc2)CC1 (stereo not drawn),"inconclusive: 29.1 µM [rising, single point]",
CC(=O)Nc1ccc(N(C(=O)c2ccco2)C(C(=O)NC2CCCCC2)c2ccccc2)cc1 (stereo not drawn),inactive,
Cc1cc(-n2c(SCC(=O)Nc3ccc(F)c(F)c3)nc3n[nH]c(C)c3c2=N)ccc1Cl,inactive,
CCn1cc(C(=O)NC(C)C23CC4CC(CC(C4)C2)C3)cn1 (stereo not drawn),"inconclusive: 23.1 µM [cytotoxic, single point]",
Cc1ccc(NS(=O)(=O)c2ccc(N3CCN(c4ccc(O)cc4)CC3)c([N+](=O)[O-])c2)c(C)c1,"inconclusive: 18.4 µM [cytotoxic, single point]",
CCCCC(CC)CNC(=O)c1ccc2c(=O)n(Cc3ccc(OC)cc3)c(=O)[nH]c2c1 (stereo not drawn),inactive,
Cc1ccccc1NC(=O)Cn1c(O)c(N=NC(=O)c2ccccc2O)c2ccccc21,"inconclusive: 6.51 µM [cytotoxic, full curve]",
O=C(Nc1cccc(Cl)c1)OCCN1CCN(Cc2ccccc2)CCC1=O,"inconclusive: 18.4 µM [cytotoxic, single point]",

# As entered above.
# Potency with `Cc1ccccc1NC(=O)Cn1c(O)c(N=NC(=O)c2ccccc2O)c2ccccc21` is entered as inconclusive: 6.51 µM [cytotoxic, full curve]
# Potency with `CCN1CCN(C(CNS(=O)(=O)c2ccc(F)cc2)c2cccnc2)CC1` (stereo not drawn) is entered as inconclusive: 29.1 µM [rising, single point]
# Potency with `CCOC(=O)C1CCN(C(=O)COC(=O)c2c(C)c(CC)nc3ccccc23)CC1` is entered as inconclusive: 20.6 µM [cytotoxic, single point]

# The results go on.

Structure (SMILES),Potency,"activity change, negative = cytotoxicity"
O=C(Nc1ccc(-c2n[nH]c(=S)o2)cc1)c1ccccc1,"inconclusive: 29.1 µM [rising, single point]",
O=C(COc1ccc(S(=O)(=O)N2CCCCC2)cc1)NCc1ccncc1,"inconclusive: 0.0046 µM [cytotoxic, full curve, poor fit]",
Cc1cc(C)c(NC(=O)COc2nc3ccccc3nc2C)c(C)c1,"inconclusive: 29.1 µM [cytotoxic, single point]",
O=[N+]([O-])c1cc(C(F)(F)F)cc([N+](=O)[O-])c1NN=C1CCCCC1,"inconclusive: 23.1 µM [rising, partial curve, poor fit]",
CCc1nonc1NC(=O)c1oc2ccccc2c1C,inactive,
Cc1ccc(CNC(=O)C2CC(c3ccc(C(F)(F)F)cc3)=NO2)o1 (stereo not drawn),"inconclusive: 29.1 µM [cytotoxic, single point]",
COc1cc(OC)cc(C(=O)NCC(=O)OCC(=O)/C=C2/N(C)c3ccccc3C2(C)C)c1,"inconclusive: 32.6 µM [rising, single point]",
CN1CCN(S(=O)(=O)c2ccc(-c3ccc(Cl)cc3)cc2)CC1,active: 13 µM,
Cc1ccc(S(=O)(=O)N(CC(=O)Nc2cccnc2)c2ccccc2C)cc1,"inconclusive: 11.6 µM [cytotoxic, partial curve]",
COC(=O)Nc1ccc(S(=O)(=O)N2CCCC(C(=O)N3CCCCC3)C2)cc1 (stereo not drawn),"inconclusive: 20.6 µM [cytotoxic, single point]",
C=CCn1c(CSCc2ccc(Cl)cc2Cl)nnc1SCC(=O)Nc1ccc(C(=O)O)cc1,inactive,
CCOC(=O)[C@]12CCC=C1N(Cc1ccc3c(c1)OCO3)C(=O)[C@H](CC(=O)NCc1cccs1)C2,"inconclusive: 5.8 µM [cytotoxic, partial curve, poor fit]",
COc1ccc(-c2cc(C(F)(F)F)n3nc(C(=O)NCC45CC6CC(CC(C6)C4)C5)cc3n2)cc1,inactive,
O=C(NC(c1ccc(Cl)cc1)c1c(O)ccc2ccccc12)c1ccccc1 (stereo not drawn),active: 20.6 µM,
Cc1ccc(C(=O)CSC2=C(C#N)C(c3ccco3)C3=C(CCCC3=O)N2)cc1 (stereo not drawn),active: 8.2 µM,
O=C(NCCCc1ccc(F)cc1)C1CCC(=O)N(CCN2CCOCC2)C1 (stereo not drawn),inactive,
CN1CC(c2ccccc2)C2(COc3ccccc3C2=O)C12C(=O)Nc1ccccc12 (stereo not drawn),active: 20.6 µM,
COc1ccccc1C(=O)N1CCN(c2nc3cc(C)cc(C)c3cc2C#N)CC1,"inconclusive: 20.6 µM [cytotoxic, single point]",
Cc1cccc(C)c1NC(=O)CNC(=O)C(C)N1CCN(c2cccc(Cl)c2)CC1 (stereo not drawn),"inconclusive: 20.6 µM [cytotoxic, single point]",
Cc1cccc(C)c1NC(=O)CN1CCN(C(=O)c2ccc(OCc3cn4ccccc4n3)cc2)CC1,inactive,
COc1cc2c(cc1OC)CN(C(=O)CSc1n[nH]c(N)n1)CC2,"inconclusive: 35.5 µM [rising, single point]",
Cc1c(C(=O)OC2CCCC2)[nH]c2c1C(=O)CC(c1ccco1)C2 (stereo not drawn),active: 0.58 µM,
